Percent effect of library compounds

Source: ChEMBL document CHEMBL3988442, “University of Dundee, Small-Polar-MMV Screening Library” (2021).

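Assay of Toxoplasma gondii numbers, read through their beta-galactosidase reporter with a colour substrate. Compounds at 50 µM. The record gives no direction; the compounds picked for IC50 retests had high values, so higher reads as fewer parasites. Size under these conditions: about 18,000 compounds, about 170 of them at 50% or above in at least one test.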

Values are the deposited “Percent Effect”, in %.
The record does not define 0% and 100%; most values in the screen are far below 50% and negative numbers occur (in some assays of this library far below -100).
The compounds are a random part of those screened.

CCS(=O)(=O)NCCCn1ccnc1C(C)C gave -0.8812%.
Cc1cc(NC(=O)Cn2cc(Br)ccc2=O)no1 gave -8.202%.
CCC1CN(C(=O)c2ccc(S(C)(=O)=O)cc2)CCO1 (centres undefined) gave -6.377%.
CC1CCCCN1CCNC(=O)c1cnccn1 (centres undefined) gave -1.578%.
COc1ccccc1C(N)c1ccco1 (centres undefined) gave 31.73%.
CCC1(CO)CCCN(C(=O)c2ccc(COC)s2)C1 (centres undefined) gave 9.582%.
NS(=O)(=O)c1csc2ccccc12 gave -10.55%.
CNC(=O)Cn1cc(-c2cccc3cnccc23)cn1 gave -5.125%.
Cc1ccc(S(=O)(=O)NCCCN)cc1Br gave -21.82%.
COc1ccc2c(c1)CCCC(=O)N2 gave -15.42%.
CCNC(=O)c1cc(C)oc1C gave 6.245%.
CN(C)S(=O)(=O)N1CCOC(CC2CCCCC2)C1 (centres undefined) gave 25.35%.
CCS(=O)(=O)N(C)c1ccc(F)cc1OC gave -0.2921%.
CCN1CCC(CCNC(=O)c2ccccn2)CC1 gave -1.156%.
COCC(=O)N1CCC2(CC1)OCCO2 gave 22.52%.
CN1CCN(C2CNC2)CC1 gave 16.43%.
Cc1cc(=O)[nH]c(C2(N)CCCCC2)n1 gave 17.39%.
CN(C)C(=O)CNC(CO)c1ccc(Cl)c(F)c1 (centres undefined) gave 52.18%.
COc1c(C)cnc(CN(C)C)c1C gave 0.7571%.
CNC(=O)C(C)(C)Oc1cccc(Cl)c1 gave -9.591%.
Cc1ccc(C)c(NC(=O)CCN2CCCC2)c1 gave 0.02075%.
NCCOCCS(N)(=O)=O gave -9.862%.
O=C(NCC(F)(F)F)C1CCN(CC(F)F)CC1 gave -5.562%.
COc1ncc(C(=O)NCc2ccc(F)cc2)cn1 gave -9.143%.
Cc1nc(C(C)C)sc1C(=O)N[C@H]1CC[C@H]1N gave -1.349%.
CC(C)C(=O)NCc1ccnc(N2CCOCC2)c1 gave -4.476%.
Cn1ccc(NC(=O)C2CCCN(S(C)(=O)=O)C2)n1 (centres undefined) gave -15.85%.
N#Cc1ccc(S(=O)(=O)NCCCN)cc1C(F)(F)F gave -2.216%.
N#Cc1ccc(CN2CCCN(CCCO)CC2)cc1 gave 5.513%.
CS(=O)(=O)NCCc1ccccc1F gave 12.25%.
CCOc1nnc(CN2CCC(C(N)=O)CC2)s1 gave -3.487%.
CC(C)(C)C(=O)NC1CCS(=O)(=O)c2ccccc21 (centres undefined) gave 7.221%.
Cc1ccc(CCN2CCN(S(N)(=O)=O)CC2)cc1 gave 16.53%.
Cc1nc(C2(N)CCC2)no1 gave -7.989%.
Cc1ccc(S(=O)(=O)N2CCOCC2)c2cccnc12 gave -17.49%.
NS(=O)(=O)c1cccc(S(=O)(=O)c2ccc(Cl)cc2)c1 gave 10.08%.
CN1CCC(N2CCNCC2CCO)CC1 (centres undefined) gave -2.182%.
CN1CCCCC1CC(=O)NCc1ccc(C#N)cc1 (centres undefined) gave -1.912%.
CC(CN)N(C)C(=O)Cc1cc(F)ccc1F (centres undefined) gave -4.304%.
CCCn1ccnc1-c1nc2c([nH]1)CCCNC2=O gave 4.566%.
NCCc1ccc(CN2CCN3CCCCC3C2)cc1 (centres undefined) gave 1.728%.
O=C1CCNC(C2CC2)C1 (centres undefined) gave -17.66%.
COC(=O)c1cccc(Cn2cnc(C#N)n2)c1 gave -8.719%.
CC(C)(N)C(C)(C)CO gave -3.154%.
O=C1OC2(CCNCC2)CN1Cc1ccc(Cl)s1 gave 3.579%.
OCC1(Cc2ccccc2F)CCCNC1 (centres undefined) gave 2.008%.
O=C([C@H]1CC[C@@H](O)CC1)N1CCC(c2nnc[nH]2)CC1 gave -0.5049%.
NCCc1ccc(CO)cc1 gave -0.106%.
CC(C)NC(=O)CN1c2cc(Cl)ccc2CS1(=O)=O gave 1.215%.
CCc1ccc(CN(C)C(=O)CCNC(C)=O)nc1 gave -2.929%.
c1ccc(Nc2nccs2)nc1 gave -28.74%.
CN(C)c1cc(CNC(=O)N2CCC(O)CC2)ccn1 gave 13.47%.
O=C1NCC(C(=O)NCCCc2ccc(Cl)cc2)N1 (centres undefined) gave 10.16%.
CN1C(=O)[C@H]2CN(Cc3cccc(Br)c3)C[C@H]2C1=O gave 6.419%.
COc1ccc(C(CNC(C)=O)N2CCCC2)cc1 (centres undefined) gave 6.184%.
CC[C@H](C)[C@H](NC(N)=O)C(=O)Nc1ccccc1F gave -13.29%.
Cc1ccc(NC(=O)Cn2ccnc2S(C)(=O)=O)cc1 gave 0.02585%.
O[C@H]1C[C@H](N2CCOCC2)C1 gave -7.328%.
NS(=O)(=O)N1CCC(C(=O)N2CCCCCC2)CC1 gave 26.68%.
CCOc1cccc(CS(=O)(=O)Cc2cc(C)no2)n1 gave -12.86%.
CCc1nsc(N2CC(CO)C2)n1 gave 7.559%.
CC(C)C(=O)N1CCC(O)CC1 gave 14.23%.
NCc1ccc2c(c1)OCCO2 gave 13.57%.
O=c1[nH]cnc2ccc(Cl)cc12 gave -9.17%.

The first 4 entries again:

structure	effect
CCS(=O)(=O)NCCCn1ccnc1C(C)C	-0.8812
Cc1cc(NC(=O)Cn2cc(Br)ccc2=O)no1	-8.202
CCC1CN(C(=O)c2ccc(S(C)(=O)=O)cc2)CCO1 (centres undefined)	-6.377
CC1CCCCN1CCNC(=O)c1cnccn1 (centres undefined)	-1.578